Reference: paper doi:10.1101/2025.08.12.669905
Like-named read-outs stand apart in the source and are kept apart here. No constants are given. Whether binding was seen depends on the method and setting. Binding seen in cells or lysates may run through a third protein. Some results given as binding are weak or reduced against the parent protein; the word gives no strength. For some assays here: Where a sequence is shown, tags or fusion partners need not be part of it.

By UniProt entry, the sequences of proteins in these tests, tags left out.
UniProt Q15648: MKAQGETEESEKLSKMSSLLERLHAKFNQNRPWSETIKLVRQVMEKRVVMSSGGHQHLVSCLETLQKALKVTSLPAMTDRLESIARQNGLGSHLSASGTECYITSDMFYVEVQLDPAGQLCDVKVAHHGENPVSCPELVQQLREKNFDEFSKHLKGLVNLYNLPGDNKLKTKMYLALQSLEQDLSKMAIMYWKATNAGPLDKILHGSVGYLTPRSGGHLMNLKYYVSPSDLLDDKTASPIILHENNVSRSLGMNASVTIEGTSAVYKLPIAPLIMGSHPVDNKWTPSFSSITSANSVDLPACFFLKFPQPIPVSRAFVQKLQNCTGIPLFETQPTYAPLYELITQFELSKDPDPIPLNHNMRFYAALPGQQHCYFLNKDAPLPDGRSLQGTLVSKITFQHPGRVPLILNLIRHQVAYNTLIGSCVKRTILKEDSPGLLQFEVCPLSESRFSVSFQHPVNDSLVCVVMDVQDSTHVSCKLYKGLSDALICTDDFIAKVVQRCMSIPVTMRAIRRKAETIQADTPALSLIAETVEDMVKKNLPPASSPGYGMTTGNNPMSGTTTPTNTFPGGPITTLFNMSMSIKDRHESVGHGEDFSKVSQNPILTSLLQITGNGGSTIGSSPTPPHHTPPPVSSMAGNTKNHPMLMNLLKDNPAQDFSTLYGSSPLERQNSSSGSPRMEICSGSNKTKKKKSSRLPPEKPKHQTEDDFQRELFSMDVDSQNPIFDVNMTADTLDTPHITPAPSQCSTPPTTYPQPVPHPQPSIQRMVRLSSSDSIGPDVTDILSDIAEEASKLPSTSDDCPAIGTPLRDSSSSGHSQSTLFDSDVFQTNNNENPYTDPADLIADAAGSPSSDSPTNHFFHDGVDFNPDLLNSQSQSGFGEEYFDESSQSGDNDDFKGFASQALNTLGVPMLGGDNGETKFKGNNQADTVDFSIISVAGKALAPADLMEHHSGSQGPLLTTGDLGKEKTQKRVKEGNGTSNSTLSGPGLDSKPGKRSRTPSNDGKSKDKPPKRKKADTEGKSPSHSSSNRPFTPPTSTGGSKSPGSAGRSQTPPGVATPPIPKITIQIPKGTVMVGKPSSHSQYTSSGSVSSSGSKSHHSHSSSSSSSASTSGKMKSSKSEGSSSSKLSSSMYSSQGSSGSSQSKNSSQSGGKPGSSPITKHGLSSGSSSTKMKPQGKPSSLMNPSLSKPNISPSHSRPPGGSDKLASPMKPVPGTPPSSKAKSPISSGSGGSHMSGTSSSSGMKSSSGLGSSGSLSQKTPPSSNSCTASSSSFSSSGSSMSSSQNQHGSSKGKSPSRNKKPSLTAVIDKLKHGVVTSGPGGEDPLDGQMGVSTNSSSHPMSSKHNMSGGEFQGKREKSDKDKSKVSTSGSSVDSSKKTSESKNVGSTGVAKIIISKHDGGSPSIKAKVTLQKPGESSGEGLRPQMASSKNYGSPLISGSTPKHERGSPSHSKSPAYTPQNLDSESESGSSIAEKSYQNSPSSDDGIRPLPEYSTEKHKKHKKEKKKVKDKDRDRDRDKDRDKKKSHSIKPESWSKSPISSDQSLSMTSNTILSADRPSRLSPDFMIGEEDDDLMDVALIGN
UniProt P49336: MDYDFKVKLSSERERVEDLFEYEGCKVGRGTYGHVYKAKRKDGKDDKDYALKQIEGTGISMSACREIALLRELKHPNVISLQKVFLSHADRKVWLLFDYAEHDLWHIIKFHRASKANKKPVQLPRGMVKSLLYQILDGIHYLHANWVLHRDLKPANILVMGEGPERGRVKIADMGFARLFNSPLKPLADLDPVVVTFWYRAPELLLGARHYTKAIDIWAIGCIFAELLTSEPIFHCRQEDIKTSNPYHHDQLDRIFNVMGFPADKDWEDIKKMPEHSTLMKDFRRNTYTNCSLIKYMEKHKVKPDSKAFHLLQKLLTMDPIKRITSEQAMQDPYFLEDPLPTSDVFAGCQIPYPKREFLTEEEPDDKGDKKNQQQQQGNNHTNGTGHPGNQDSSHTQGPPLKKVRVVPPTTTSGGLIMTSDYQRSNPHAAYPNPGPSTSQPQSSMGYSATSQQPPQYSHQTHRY
UniProt Q93074: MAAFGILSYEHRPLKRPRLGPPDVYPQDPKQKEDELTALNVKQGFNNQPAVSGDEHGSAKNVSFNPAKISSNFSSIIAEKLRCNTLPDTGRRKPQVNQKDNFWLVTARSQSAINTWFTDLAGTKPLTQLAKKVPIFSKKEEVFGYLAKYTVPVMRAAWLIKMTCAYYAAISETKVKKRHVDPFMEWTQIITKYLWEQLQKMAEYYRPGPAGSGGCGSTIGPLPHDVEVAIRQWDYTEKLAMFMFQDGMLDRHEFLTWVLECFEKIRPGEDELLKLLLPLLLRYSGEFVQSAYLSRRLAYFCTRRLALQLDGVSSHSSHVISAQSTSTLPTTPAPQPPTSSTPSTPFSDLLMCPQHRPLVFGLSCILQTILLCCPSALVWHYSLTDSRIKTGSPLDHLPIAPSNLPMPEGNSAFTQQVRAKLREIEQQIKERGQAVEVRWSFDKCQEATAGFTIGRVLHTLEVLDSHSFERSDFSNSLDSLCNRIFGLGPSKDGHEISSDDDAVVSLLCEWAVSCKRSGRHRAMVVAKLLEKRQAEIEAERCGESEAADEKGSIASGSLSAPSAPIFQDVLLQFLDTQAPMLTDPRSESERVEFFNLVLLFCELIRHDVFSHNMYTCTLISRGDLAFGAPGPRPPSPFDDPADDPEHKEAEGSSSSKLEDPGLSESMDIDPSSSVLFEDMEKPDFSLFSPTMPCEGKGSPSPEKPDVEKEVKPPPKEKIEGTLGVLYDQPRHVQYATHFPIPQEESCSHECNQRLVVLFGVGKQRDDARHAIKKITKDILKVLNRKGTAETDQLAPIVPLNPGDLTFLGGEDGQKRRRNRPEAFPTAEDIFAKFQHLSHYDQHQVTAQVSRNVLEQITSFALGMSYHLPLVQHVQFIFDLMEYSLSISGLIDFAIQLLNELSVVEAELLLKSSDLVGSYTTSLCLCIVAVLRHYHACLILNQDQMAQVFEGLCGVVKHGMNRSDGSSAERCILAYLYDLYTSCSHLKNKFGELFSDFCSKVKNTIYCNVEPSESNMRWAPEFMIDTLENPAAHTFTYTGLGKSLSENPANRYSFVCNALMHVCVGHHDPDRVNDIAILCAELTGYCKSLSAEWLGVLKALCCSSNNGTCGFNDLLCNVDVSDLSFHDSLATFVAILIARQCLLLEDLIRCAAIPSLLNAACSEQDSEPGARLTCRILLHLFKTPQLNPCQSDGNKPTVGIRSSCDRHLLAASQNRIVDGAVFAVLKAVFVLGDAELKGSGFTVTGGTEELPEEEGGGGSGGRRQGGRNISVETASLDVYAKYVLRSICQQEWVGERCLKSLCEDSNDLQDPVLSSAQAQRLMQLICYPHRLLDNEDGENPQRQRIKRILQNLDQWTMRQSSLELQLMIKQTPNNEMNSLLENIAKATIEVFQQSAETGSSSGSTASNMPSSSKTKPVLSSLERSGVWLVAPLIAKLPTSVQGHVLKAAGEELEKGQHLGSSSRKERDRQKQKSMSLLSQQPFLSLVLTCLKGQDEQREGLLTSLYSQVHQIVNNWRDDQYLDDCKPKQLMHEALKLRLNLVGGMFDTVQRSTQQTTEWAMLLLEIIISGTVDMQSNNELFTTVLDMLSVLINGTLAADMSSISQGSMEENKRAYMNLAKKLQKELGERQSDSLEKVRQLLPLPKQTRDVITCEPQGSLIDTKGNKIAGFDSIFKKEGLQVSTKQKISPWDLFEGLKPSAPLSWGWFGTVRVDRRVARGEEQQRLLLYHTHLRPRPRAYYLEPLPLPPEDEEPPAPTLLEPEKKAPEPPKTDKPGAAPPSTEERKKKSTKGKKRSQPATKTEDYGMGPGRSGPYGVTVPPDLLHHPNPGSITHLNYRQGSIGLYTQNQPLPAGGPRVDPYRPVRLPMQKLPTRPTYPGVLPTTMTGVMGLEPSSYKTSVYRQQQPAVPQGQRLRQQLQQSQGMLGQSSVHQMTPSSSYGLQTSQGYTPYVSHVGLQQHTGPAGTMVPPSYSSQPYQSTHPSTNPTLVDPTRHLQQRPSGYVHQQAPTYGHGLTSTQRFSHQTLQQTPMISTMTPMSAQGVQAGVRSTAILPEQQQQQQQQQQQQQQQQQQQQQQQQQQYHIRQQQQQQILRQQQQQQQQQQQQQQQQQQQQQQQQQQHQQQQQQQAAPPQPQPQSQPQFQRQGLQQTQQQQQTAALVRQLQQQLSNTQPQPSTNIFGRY

Columns and labels:
Assay in all cases: co-IP
[1] = target: MED1 (endogenous) (human (endogenous in 293T and HeLa)) (UniProt Q15648)
[2] = target: CDK8 (endogenous) (human (endogenous in 293T and HeLa)) (UniProt P49336)
[3] = target: MED1 (endogenous) (human (endogenous in 293T and HeLa)) (UniProt Q15648); remark: listed apart in the source
[4] = target: MED12 (endogenous) (human (endogenous in 293T and HeLa)) (UniProt Q93074)
[5] = target: T1, TFCP2 (endogenous) (human (endogenous in HeLa and 293T)) (UniProt Q12800)
T1 sequence: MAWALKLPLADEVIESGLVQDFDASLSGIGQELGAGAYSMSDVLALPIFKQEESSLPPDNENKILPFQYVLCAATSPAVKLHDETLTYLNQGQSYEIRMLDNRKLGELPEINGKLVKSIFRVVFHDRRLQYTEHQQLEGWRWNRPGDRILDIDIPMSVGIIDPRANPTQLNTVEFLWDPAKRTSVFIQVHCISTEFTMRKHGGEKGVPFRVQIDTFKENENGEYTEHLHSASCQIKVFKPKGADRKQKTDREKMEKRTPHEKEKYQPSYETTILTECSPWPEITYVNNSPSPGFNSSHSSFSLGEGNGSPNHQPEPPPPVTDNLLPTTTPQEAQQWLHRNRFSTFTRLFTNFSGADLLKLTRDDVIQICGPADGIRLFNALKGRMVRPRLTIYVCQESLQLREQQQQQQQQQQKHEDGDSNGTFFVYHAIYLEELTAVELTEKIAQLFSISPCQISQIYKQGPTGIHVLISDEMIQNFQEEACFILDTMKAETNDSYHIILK

[6] = target: CDK8 (endogenous) (human (endogenous in 293T and HeLa)) (UniProt P49336); remark: listed apart in the source
[7] = target: T2, Flag-UBP1 ΔSAM (1-369aa) (human) (UniProt Q9NZI7)
T2 sequence: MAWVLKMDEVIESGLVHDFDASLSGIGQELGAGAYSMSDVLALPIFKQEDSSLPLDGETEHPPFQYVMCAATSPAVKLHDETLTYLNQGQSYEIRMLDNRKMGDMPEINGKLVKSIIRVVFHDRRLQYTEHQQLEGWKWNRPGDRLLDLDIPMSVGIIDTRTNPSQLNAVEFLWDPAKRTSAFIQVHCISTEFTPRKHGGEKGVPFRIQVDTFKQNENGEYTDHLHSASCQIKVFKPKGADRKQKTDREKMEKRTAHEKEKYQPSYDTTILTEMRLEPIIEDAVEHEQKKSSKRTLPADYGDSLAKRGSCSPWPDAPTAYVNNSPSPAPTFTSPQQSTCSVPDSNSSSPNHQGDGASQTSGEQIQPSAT

[8] = target: T3, Flag-UBP1, full length (human) (UniProt Q9NZI7)
T3 sequence: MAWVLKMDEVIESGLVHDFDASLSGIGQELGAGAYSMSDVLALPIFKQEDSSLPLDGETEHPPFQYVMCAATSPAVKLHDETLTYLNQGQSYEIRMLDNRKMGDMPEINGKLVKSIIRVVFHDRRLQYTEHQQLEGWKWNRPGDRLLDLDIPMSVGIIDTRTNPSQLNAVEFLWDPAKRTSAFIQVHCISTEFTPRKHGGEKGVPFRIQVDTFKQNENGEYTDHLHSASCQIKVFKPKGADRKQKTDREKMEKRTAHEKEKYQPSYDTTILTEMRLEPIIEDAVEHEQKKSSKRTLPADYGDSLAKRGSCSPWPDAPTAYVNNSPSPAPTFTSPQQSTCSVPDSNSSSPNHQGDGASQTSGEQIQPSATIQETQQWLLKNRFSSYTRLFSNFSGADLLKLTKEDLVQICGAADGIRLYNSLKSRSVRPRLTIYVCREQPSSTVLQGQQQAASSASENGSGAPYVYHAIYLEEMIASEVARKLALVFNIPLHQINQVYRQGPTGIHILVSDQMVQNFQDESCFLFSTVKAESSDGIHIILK

[9] = target: MED1 (endogenous) (human (endogenous in 293T and HeLa)) (UniProt Q15648); remark: listed apart in the source
[10] = target: MED12 (endogenous) (human (endogenous in 293T and HeLa)) (UniProt Q93074); remark: listed apart in the source
[11] = target: T1, TFCP2 (endogenous) (human (endogenous in HeLa and 293T)); remark: listed apart in the source

binding [1]: binds
binding [2]: binds
binding [3]: binds
binding [4]: binds
binding [5]: binds
binding [6]: binds
binding [7]: binds
binding [8]: binds
binding [9]: binds
binding [10]: binds
binding [11]: binds
B1: Mediator subunit MED16 (endogenous) (protein, UniProt Q9Y2X0 1-877)
chain: MCDLRRPAAGGMMDLAYVCEWEKWSKSTHCPSVPLACAWSCRNLIAFTMDLRSDDQDLTRMIHILDTEHPWDLHSIPSEHHEAITCLEWDQSGSRLLSADADGQIKCWSMADHLANSWESSVGSLVEGDPIVALSWLHNGVKLALHVEKSGASSFGEKFSRVKFSPSLTLFGGKPMEGWIAVTVSGLVTVSLLKPSGQVLTSTESLCRLRGRVALADIAFTGGGNIVVATADGSSASPVQFYKVCVSVVSEKCRIDTEILPSLFMRCTTDLNRKDKFPAITHLKFLARDMSEQVLLCASSQTSSIVECWSLRKEGLPVNNIFQQISPVVGDKQPTILKWRILSATNDLDRVSAVALPKLPISLTNTDLKVASDTQFYPGLGLALAFHDGSVHIVHRLSLQTMAVFYSSAAPRPVDEPAMKRPRTAGPAVHLKAMQLSWTSLALVGIDSHGKLSVLRLSPSMGHPLEVGLALRHLLFLLEYCMVTGYDWWDILLHVQPSMVQSLVEKLHEEYTRQTAALQQVLSTRILAMKASLCKLSPCTVTRVCDYHTKLFLIAISSTLKSLLRPHFLNTPDKSPGDRLTEICTKITDVDIDKVMINLKTEEFVLDMNTLQALQQLLQWVGDFVLYLLASLPNQGSLLRPGHSFLRDGTSLGMLRELMVVIRIWGLLKPSCLPVYTATSDTQDSMSLLFRLLTKLWICCRDEGPASEPDEALVDECCLLPSQLLIPSLDWLPASDGLVSRLQPKQPLRLQFGRAPTLPGSAATLQLDGLARAPGQPKIDHLRRLHLGACPTEECKACTRCGCVTMLKSPNRTTAVKQWEQRWIKNCLAVEGRGPDACVTSRASEEAPAFVQLGPQSTHHSPRTPRSLDHLHPEDRP
